The results in this text go back to publication PMC9182688.

Chains of the proteins cited; added tags and fusions are not shown.
UniProt P09429: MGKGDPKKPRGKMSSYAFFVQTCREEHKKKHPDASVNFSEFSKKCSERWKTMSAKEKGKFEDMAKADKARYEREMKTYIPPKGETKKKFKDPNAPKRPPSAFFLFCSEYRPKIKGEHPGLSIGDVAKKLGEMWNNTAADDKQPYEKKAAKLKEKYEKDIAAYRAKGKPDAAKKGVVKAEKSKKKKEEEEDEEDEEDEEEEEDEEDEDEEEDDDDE
UniProt P03165: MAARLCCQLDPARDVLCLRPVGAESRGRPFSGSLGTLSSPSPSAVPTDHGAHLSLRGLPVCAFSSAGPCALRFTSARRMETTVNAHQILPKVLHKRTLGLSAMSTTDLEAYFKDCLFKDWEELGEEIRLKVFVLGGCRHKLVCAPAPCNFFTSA

This experiment has as its target high mobility group box 1 protein (HMGB1), endogenous (human (endogenous in HepG2)) (UniProt P09429). Put plainly: co-IP; HepG2 cells transfected with FLAG-HBx for 3 days; endogenous HMGB1 immunoprecipitated with Anti-HMGB1/HMG1 magnetic beads IP kit; Western blot of HMGB1 and FLAG-HBx.

Results are given in words; binding and its absence hold for the method and conditions named. In cells and extracts the contact can be indirect. Some results given as binding are weak or reduced against the parent protein; the word gives no strength.

As to “N-terminally FLAG-tagged HBx protein (hepatitis B virus X protein) (from UniProt P03165 1-154)”, the binding entry is “binds”.
